The list shows a part of the results.
target: T1, OsSMF1 (Oryza sativa, UniProt Q6ZLB0 1-436); assay: protein-binding microarray (RPBM); PBS, 2% BSA, 51.3 ng/ul salmon testes DNA, 50 uM zinc acetate, 200 nM TF, 25 C, 1 h; high values mean tight binding; settings: protein: recombinant; tags: N-terminal polyhistidine and DsRed monomer fusion (pET32a); chain copies: 2; label: CyDye5-dUTP incorporated in the synthesized complementary strand; 3' TTTTT single-stranded linker to array surface; dsDNA, one strand shown
T1 sequence: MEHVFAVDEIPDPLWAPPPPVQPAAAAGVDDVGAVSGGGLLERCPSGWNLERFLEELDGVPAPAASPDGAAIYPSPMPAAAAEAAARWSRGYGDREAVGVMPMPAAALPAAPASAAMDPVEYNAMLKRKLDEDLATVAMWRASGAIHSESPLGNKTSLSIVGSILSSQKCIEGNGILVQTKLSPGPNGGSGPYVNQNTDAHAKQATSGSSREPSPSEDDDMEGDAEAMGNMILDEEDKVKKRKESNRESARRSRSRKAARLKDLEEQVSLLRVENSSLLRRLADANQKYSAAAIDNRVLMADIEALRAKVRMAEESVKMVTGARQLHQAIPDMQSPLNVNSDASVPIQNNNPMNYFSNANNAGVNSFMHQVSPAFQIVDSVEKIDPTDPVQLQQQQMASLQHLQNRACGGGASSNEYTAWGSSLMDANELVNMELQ
Outline: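 Per-feature fluorescence intensity (arbitrary units), read on an Axon 4000B scanner, is the binding signal. Transcription factors carrying an N-terminal polyhistidine tag and DsRed fusion were expressed in E. coli BL21-CodonPlus and purified on Ni–NTA. A custom Agilent array, made double-stranded by primer extension with Cy5-dUTP and blocked with 2% BSA, was incubated with 200 nM protein in PBS, 2% BSA, salmon testes DNA and 50 µM zinc acetate at 25 °C for 1 h and then washed.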

Row | Sequence | binding signal
1 | AAAGATCAGAGAGACTACTAATCCGGTTTATTTACTGGCACGGAGTCACCTAGTGCAG | 44100 fluorescence intensity (a.u.)
2 | GAGTAGCTCACTCCGGATCGGGTGTTAGGGATGGCCATCACGGAGTCACCTAGTGCAG | 3390 fluorescence intensity (a.u.)
3 | ACCAAACGATGCCACGCCGGTCAGATGTCGCCATCTCCCACGGAGTCACCTAGTGCAG | 4480 fluorescence intensity (a.u.)
4 | TTTTGGATGCAGCATATGGTTGTCCCGATGCAAAATCCTCCGGAGTCACCTAGTGCAG | 4530 fluorescence intensity (a.u.)
5 | AGTGTCCTTCTCAAAACTTAACTTCTGTGACGTCCTATAACGGAGTCACCTAGTGCAG | 3540 fluorescence intensity (a.u.)
6 | CCGTGCCCGTGCTCGGAAGCCTCGTGTGGCTGACGCACTCCGGAGTCACCTAGTGCAG | 4200 fluorescence intensity (a.u.)
7 | TCAAGTCCATGAAAGTATCAGCTTTTGGTTGTCAAATATACGGAGTCACCTAGTGCAG | 3150 fluorescence intensity (a.u.)
8 | TCTACGGGTATCCCGCGTCGACAATATTCCCATGCATTTACGGAGTCACCTAGTGCAG | 3490 fluorescence intensity (a.u.)
9 | CAGCGTTCGGTGGGAGGTGACGCTGACGCAGCGCAATCGCCGGAGTCACCTAGTGCAG | 7040 fluorescence intensity (a.u.)
10 | CTATTATATGAGAGAAAATATAATGATGCTAGCCGCGCAACGGAGTCACCTAGTGCAG | 27200 fluorescence intensity (a.u.)
11 | GTCACGCGCAACATTCATTGCGAAGTCACGACTTGCGAGCCGGAGTCACCTAGTGCAG | 4400 fluorescence intensity (a.u.)
12 | AACTTTTAATGATGTTCAACATGGGAAAATATGTGGTGGACGGAGTCACCTAGTGCAG | 8320 fluorescence intensity (a.u.)
13 | CCTATGTTAGGGTAACTATCATTGACCATGAAACTCATCTCGGAGTCACCTAGTGCAG | 3210 fluorescence intensity (a.u.)
14 | CTTGCGCGCGTGATTTGCCATTGCCACATGTCCGATTGGGCGGAGTCACCTAGTGCAG | 4520 fluorescence intensity (a.u.)
15 | CCGACGAAATCGACCACGCTGCATGAGGTCTCCACCTCACCGGAGTCACCTAGTGCAG | 3150 fluorescence intensity (a.u.)
16 | TGTTTGTGAAATGATATATTACAAATTAACCTATCTTGTGCGGAGTCACCTAGTGCAG | 20400 fluorescence intensity (a.u.)
17 | TTGATCTCTTGTCTTCTATGGACCAAAAGTGACGTGGTGACGGAGTCACCTAGTGCAG | 11700 fluorescence intensity (a.u.)
18 | GGCGCTGTCGGACCCCTCCGGCGCGCTGGCGACGTGGACGCGGAGTCACCTAGTGCAG | 4610 fluorescence intensity (a.u.)
19 | TGTTCATCTGCGCCACGACACGACACGACACGACACGAGACGGAGTCACCTAGTGCAG | 4370 fluorescence intensity (a.u.)
20 | CTAGGTAAGCAATGACGAGGACACAGCAGCATAGGAAGCTCGGAGTCACCTAGTGCAG | 3960 fluorescence intensity (a.u.)
21 | CTGCTTCATGGATTGATCCATGCTGTCGTAGTGGCTCTCGCGGAGTCACCTAGTGCAG | 26600 fluorescence intensity (a.u.)

From no. 13 to 15, copied from above:
Row | Sequence | binding signal
13 | CCTATGTTAGGGTAACTATCATTGACCATGAAACTCATCTCGGAGTCACCTAGTGCAG | 3210 fluorescence intensity (a.u.)
14 | CTTGCGCGCGTGATTTGCCATTGCCACATGTCCGATTGGGCGGAGTCACCTAGTGCAG | 4520 fluorescence intensity (a.u.)
15 | CCGACGAAATCGACCACGCTGCATGAGGTCTCCACCTCACCGGAGTCACCTAGTGCAG | 3150 fluorescence intensity (a.u.)

Remaining list, next part

Row | Sequence | binding signal
22 | ATAGTACAAATGCATGTGTCCATAACGCGTGTATACTCACCGGAGTCACCTAGTGCAG | 3630 fluorescence intensity (a.u.)
23 | CAACTCCGGCGTGGCGGCGTACGTGGCGGCGTCGACGGTGCGGAGTCACCTAGTGCAG | 10800 fluorescence intensity (a.u.)
24 | TTTAGAATTCCCGGATCAAAACCTTATCGTCTTATATATCCGGAGTCACCTAGTGCAG | 3660 fluorescence intensity (a.u.)
25 | CATTATATCGAAGTTGTACTGCATGAAACCTTAAGCAATGCGGAGTCACCTAGTGCAG | 3180 fluorescence intensity (a.u.)
26 | TGGCAAATCTCATCAGCAACAGGGACCTCTTGGTGTGACTCGGAGTCACCTAGTGCAG | 4290 fluorescence intensity (a.u.)
27 | AACCCATGCCCACGTGTACTACGTAATTATCCTCTATTGTCGGAGTCACCTAGTGCAG | 15600 fluorescence intensity (a.u.)
28 | TACCCACGCTGACTGCCTCGGCGTCCTTCCCTCTCGACATCGGAGTCACCTAGTGCAG | 3640 fluorescence intensity (a.u.)
29 | TCACCACGGGACCCTCTATCCCTCGGCACCATCCGCCGATCGGAGTCACCTAGTGCAG | 22400 fluorescence intensity (a.u.)
30 | ACCACTTGGCAAACTCCCCAAGCGGCCACGCTCGTCACGACGGAGTCACCTAGTGCAG | 3800 fluorescence intensity (a.u.)
31 | TGCCACCCGTCCGACGTGGCGTCCCCATCCCACTTACTTGCGGAGTCACCTAGTGCAG | 19700 fluorescence intensity (a.u.)
32 | TGCGGGGACACGTCCGCCACCAGGATGGGCTGTGTTGGGCCGGAGTCACCTAGTGCAG | 6130 fluorescence intensity (a.u.)
33 | TACATTTGCAGGTATATATAAGTGTGATGTGTGAGCTCGTCGGAGTCACCTAGTGCAG | 3920 fluorescence intensity (a.u.)
34 | CTGCTTTACTCTACGACAATTTACGGTGGATTTTGGGTCTCGGAGTCACCTAGTGCAG | 3260 fluorescence intensity (a.u.)
35 | GCATCCTCATCCGCCTCAAGGAAGGTTCATGGATAACGTCCGGAGTCACCTAGTGCAG | 31200 fluorescence intensity (a.u.)
36 | CTAGTTTTGACTCACCGACCATTGCCCTTCTCCCTCTCCGCGGAGTCACCTAGTGCAG | 5570 fluorescence intensity (a.u.)
37 | GTAGAGGGGTAGAAATGCACGGCCAACTCAGAACATCCGTCGGAGTCACCTAGTGCAG | 3630 fluorescence intensity (a.u.)
38 | ACATCCTGATGACTAGTGCATAGCAACGCAAAATCTAATACGGAGTCACCTAGTGCAG | 12300 fluorescence intensity (a.u.)
39 | AAAGAGAAGTTAAATATGACGAGAAAAGTTGTCACGGTAGCGGAGTCACCTAGTGCAG | 17000 fluorescence intensity (a.u.)
40 | GTCGAGTTTGAAATTCATCCCTAAATTGAAATACTATATACGGAGTCACCTAGTGCAG | 6610 fluorescence intensity (a.u.)
41 | CGCTGGCACGCACGGTGGCACGCCACGTTGGCAAAAGTGGCGGAGTCACCTAGTGCAG | 7980 fluorescence intensity (a.u.)
42 | TGTGCCCTCTCCCCTTTCAGCTTCCTCCATCGCGCCTCTCCGGAGTCACCTAGTGCAG | 3450 fluorescence intensity (a.u.)

Reference: publication PMC7819943, “Rice protein-binding microarrays: a tool to detect cis-acting elements near promoter regions in rice”
